Data from patent publication US20050089938A1, “Use of peptide fragments of the calcium channel a-1 subunit, optionally comprising mutations, for screening molecules of therapeutic interest” (priority 2001, published 2005).
These are yes or no findings as the source states them, for the method shown. Some entries that bind do so weakly or less than the wild type.

Chains of the proteins cited; added tags and fusions are not shown. Lines headed by an entry give the natural chain unless they say otherwise; changes in a name come on top.
UniProt P27884: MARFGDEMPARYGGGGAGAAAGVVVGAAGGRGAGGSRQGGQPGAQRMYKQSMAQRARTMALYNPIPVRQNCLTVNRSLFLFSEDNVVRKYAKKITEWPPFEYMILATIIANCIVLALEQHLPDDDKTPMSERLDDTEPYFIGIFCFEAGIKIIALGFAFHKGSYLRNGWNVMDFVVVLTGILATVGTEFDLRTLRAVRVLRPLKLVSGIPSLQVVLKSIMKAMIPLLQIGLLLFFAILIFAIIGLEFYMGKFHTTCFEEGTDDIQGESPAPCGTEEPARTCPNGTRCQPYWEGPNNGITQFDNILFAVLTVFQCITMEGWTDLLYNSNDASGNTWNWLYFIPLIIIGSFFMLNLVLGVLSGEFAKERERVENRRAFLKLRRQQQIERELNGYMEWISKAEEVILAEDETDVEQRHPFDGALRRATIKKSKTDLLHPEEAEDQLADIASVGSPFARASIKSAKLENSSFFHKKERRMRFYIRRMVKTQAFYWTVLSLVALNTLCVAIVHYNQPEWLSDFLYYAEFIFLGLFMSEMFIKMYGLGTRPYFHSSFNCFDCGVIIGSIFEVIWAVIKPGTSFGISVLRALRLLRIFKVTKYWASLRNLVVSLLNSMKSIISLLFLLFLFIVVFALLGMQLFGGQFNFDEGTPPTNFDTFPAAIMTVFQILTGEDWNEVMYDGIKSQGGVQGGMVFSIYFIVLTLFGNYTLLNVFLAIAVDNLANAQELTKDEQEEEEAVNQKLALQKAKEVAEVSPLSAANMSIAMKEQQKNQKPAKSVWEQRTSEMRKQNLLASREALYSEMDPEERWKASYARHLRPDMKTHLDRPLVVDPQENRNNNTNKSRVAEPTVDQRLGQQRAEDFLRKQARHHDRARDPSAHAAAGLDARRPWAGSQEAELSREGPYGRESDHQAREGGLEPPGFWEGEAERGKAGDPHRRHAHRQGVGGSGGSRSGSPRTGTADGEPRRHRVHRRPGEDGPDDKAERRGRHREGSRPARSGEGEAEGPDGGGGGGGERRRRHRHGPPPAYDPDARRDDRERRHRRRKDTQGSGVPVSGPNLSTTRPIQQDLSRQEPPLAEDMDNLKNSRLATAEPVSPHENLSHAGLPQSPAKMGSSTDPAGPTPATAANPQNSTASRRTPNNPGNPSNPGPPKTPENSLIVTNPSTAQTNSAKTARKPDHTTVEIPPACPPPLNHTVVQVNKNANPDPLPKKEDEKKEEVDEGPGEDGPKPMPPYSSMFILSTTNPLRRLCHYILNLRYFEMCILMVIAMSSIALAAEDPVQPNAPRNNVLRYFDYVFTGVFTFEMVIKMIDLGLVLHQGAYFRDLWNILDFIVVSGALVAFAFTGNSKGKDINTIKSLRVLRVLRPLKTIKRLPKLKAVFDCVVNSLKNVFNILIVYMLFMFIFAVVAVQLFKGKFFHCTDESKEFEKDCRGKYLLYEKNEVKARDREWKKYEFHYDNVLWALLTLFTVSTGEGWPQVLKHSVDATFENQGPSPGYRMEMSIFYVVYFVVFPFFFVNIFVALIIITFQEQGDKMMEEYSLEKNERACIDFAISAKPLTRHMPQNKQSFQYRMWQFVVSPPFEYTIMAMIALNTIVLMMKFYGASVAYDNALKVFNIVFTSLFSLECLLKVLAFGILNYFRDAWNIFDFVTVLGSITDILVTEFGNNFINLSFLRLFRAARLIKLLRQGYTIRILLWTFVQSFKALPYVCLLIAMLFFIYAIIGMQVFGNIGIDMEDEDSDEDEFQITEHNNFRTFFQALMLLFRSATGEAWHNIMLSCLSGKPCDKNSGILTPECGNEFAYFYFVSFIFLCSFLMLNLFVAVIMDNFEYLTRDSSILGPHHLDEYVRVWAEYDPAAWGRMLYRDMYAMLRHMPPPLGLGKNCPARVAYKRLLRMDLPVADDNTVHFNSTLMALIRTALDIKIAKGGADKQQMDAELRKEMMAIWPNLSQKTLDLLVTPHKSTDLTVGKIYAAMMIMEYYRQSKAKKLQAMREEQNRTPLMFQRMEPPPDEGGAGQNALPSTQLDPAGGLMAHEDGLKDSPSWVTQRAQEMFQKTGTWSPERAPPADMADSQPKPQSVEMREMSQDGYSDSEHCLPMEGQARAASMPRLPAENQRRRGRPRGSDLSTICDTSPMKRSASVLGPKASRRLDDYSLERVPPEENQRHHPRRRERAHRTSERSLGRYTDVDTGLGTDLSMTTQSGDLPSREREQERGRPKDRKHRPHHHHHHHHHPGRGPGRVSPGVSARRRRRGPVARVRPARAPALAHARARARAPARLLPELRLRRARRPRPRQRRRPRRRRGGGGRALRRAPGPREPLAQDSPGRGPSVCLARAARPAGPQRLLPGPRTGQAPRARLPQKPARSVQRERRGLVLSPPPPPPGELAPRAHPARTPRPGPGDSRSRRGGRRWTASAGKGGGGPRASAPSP

Target: GST-III-IV fusion protein (III-IV loop of Cav2.1 expressed and purified as a Glutathione-S-Transferase fusion protein) (human or rabbit) (UniProt O00555)
Experiment: binding of 35S-methionine-labelled in vitro translated I-II loop to GST-III-IV fusion protein (FIG. 2)

binding: binds
Substance: I-II loop of the Cav2.1 sub-unit of the calcium channels of rabbit neuronal cells, translated in vitro and labelled with 35S-methionine (from UniProt P27884 360-487)
